Data as given in PubChem BioAssay AID493014 (National Center for Advancing Translational Sciences (NCATS), 2011).
The other results are listed elsewhere or left out. Shown are side measurements of this screen, not its main read-out; they come without a call. Most of these compounds were active or inconclusive in the main read-out, so they are no random draw. Potencies come from curve fits of mixed quality, noted in brackets.

Experiment: qHTS Assay to Find Inhibitors of Chronic Active B-Cell Receptor Signaling
Details: ABC-DLBCL IkBa-CBG/CBR reporter, luminescence ratio (green luciferase fused to IkBa over red control in TMD8 lymphoma cells), 4 h
How it was run: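 TMD8 human ABC-DLBCL cells with doxycycline-inducible IκBα–green luciferase fusion and unfused red luciferase, in 0.5% FBS medium; compounds up to 46 uM, 4 h at 37C. Green/red luminescence ratio, filter-overlap corrected, fitted to concentration-response curves.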

[1] = measured here: CBR red luminescence, cell number

COc1cc(OC)c2c(-c3cccc(-c4cccc(C)c4)c3)cc(=O)oc2c1
AC50 [1]: 29.1 µM [rising, single point]
AC50 (measured here: IkBa-CBG green luminescence): 18.4 µM [falling, single point]

Cc1ccc(N/N=C(\C#N)C(N)=S)c(C)c1
AC50 [1]: 5.17 µM [falling, single point]

CC(C)C1CC(C(F)(F)F)n2nc(C(=O)O)cc2N1 (centres undefined)
AC50 [1]: 5.62 µM [rising, single point]

CCC(C)C1Nc2ccc(C(=O)NCc3ccc4c(c3)OCO4)cc2NC1=O (centres undefined)
AC50 [1]: 12.6 µM [falling, partial curve]

O=C(CSc1nc(-c2ccccc2)ns1)N1CCOCC1
AC50 [1]: 35.5 µM [rising, partial curve, poor fit]

CCc1ccc(NC(=O)c2cnc(N3CCN(c4ccccn4)CC3)c3ccccc23)cc1
AC50 [1]: 3.55 µM [falling, full curve]

COc1ccc(C)cc1NC(=O)CNCc1cccs1
AC50 [1]: 11.2 µM [falling, partial curve, poor fit]

Cc1[nH]n(-c2ccccc2)c(=O)c1/C=N/NC(=O)c1ccc(O)cc1O
AC50 [1]: 2.82 µM [falling, full curve]

CC1CN(CCOc2ccccc2-c2ccccc2)CC(C)O1 (centres undefined)
AC50 [1]: 1.46 µM [rising, full curve]

O=C(c1ccc2c(c1)OCCCO2)c1cccs1
AC50 [1]: 22.4 µM [falling, single point]

CCN1CCN(c2ncc(C(=O)Nc3cc(Cl)ccc3OC)c3ccccc23)CC1
AC50 [1]: 1.3 µM [falling, full curve, poor fit]

Cc1cc(C)nc(N/N=C/c2cc(Br)ccc2O)n1
AC50 [1]: 35.5 µM [falling, single point]

CCC1(CC)NC(=O)N(CC(=O)Nc2sc3c(c2C(N)=O)CCC3)C1=O
AC50 [1]: 4.61 µM [rising, single point]

O=C(c1ccc2c3c(cccc13)CC2)C1CCCN(Cc2ccc(OCCO)cc2)C1 (centres undefined)
AC50 [1]: 35.5 µM [falling, single point]

CCOc1ccccc1N1CCN(CC(=O)Nc2ccccc2C(=O)NC2CC2)CC1
AC50 [1]: 0.58 µM [rising, full curve, poor fit]

Oc1c(C=C2N=c3ccccc3=N2)sc(=S)n1-c1ccc2ccccc2c1
AC50 [1]: 11.2 µM [falling, single point]

COc1cccc(CNC(=O)c2ccc3nc[nH]c3c2)c1
AC50 [1]: 35.5 µM [falling, single point]

COc1ccc(C)cc1NC(=O)CCCN1C(=O)C(c2ccccc2)Oc2cccnc21 (centres undefined)
AC50 [1]: 22.4 µM [falling, single point]
